Source: publication PMC11741623
No constants are given. Whether binding was seen depends on the method and setting. In cells and extracts the contact can be indirect. Some results given as binding are weak or reduced against the parent protein; the word gives no strength.

B1: TRIM15 (protein, UniProt Q9C019 1-465)
chain: MPATPSLKVVHELPACTLCAGPLEDAVTIPCGHTFCRLCLPALSQMGAQSSGKILLCPLCQEEEQAETPMAPVPLGPLGETYCEEHGEKIYFFCENDAEFLCVFCREGPTHQAHTVGFLDEAIQPYRDRLRSRLEALSTERDEIEDVKCQEDQKLQVLLTQIESKKHQVETAFERLQQELEQQRCLLLARLRELEQQIWKERDEYITKVSEEVTRLGAQVKELEEKCQQPASELLQDVRVNQSRCEMKTFVSPEAISPDLVKKIRDFHRKILTLPEMMRMFSENLAHHLEIDSGVITLDPQTASRSLVLSEDRKSVRYTRQKKSLPDSPLRFDGLPAVLGFPGFSSGRHRWQVDLQLGDGGGCTVGVAGEGVRRKGEMGLSAEDGVWAVIISHQQCWASTSPGTDLPLSEIPRGVRVALDYEAGQVTLHNAQTQEPIFTFTASFSGKVFPFFAVWKKGSCLTLKG
B2: KDEL-receptor KDELR2 (receptor, UniProt P33947 1-212)
chain: MNIFRLTGDLSHLAAIVILLLKIWKTRSCAGISGKSQLLFALVFTTRYLDLFTSFISLYNTSMKVIYLACSYATVYLIYLKFKATYDGNHDTFRVEFLVVPVGGLSFLVNHDFSPLEILWTFSIYLESVAILPQLFMISKTGEAETITTHYLFFLGLYRALYLVNWIWRFYFEGFFDLIAVVAGVVQTILYCDFFYLYITKVLKGKKLSLPA
B3: KDEL-receptor KDELR3 (receptor, UniProt O43731 1-214)
chain: MNVFRILGDLSHLLAMILLLGKIWRSKCCKGISGKSQILFALVFTTRYLDLFTNFISIYNTVMKVVFLLCAYVTVYMIYGKFRKTFDSENDTFRLEFLLVPVIGLSFLENYSFTLLEILWTFSIYLESVAILPQLFMISKTGEAETITTHYLFFLGLYRALYLANWIRRYQTENFYDQIAVVSGVVQTIFYCDFFYLYVTKVLKGKKLSLPMPI
B4: Leu2p (ORF of yeast LEU2) (protein, UniProt P04173 1-364)
chain: MSAPKKIVVLPGDHVGQEITAEAIKVLKAISDVRSNVKFDFENHLIGGAAIDATGVPLPDEALEASKKADAVLLGAVGGPKWGTGSVRPEQGLLKIRKELQLYANLRPCNFASDSLLDLSPIKPQFAKGTDFVVVRELVGGIYFGKRKEDDGDGVAWDSEQYTVPEVQRITRMAAFMALQHEPPLPIWSLDKANVLASSRLWRKTVEETIKNEFPTLKVQHQLIDSAAMILVKNPTHLNGIIITSNMFGDIISDEASVIPGSLGLLPSASLASLPDKNTAFGLYEPCHGSAPDLPKNKVNPIATILSAAMMLKLSLNLPEEGKAIEDAVKKVLDAGIRTGDLGGSNSTTEVGDAVAEEVKKILA

Legend:
TRIM15 (human) = TRIM15 (human) (UniProt Q9C019); assay: split reporter
[1] = molecular target: SARS-CoV-2 NSP4 (SARS-CoV-2) (UniProt P0DTD1); assay: split reporter; pooled PPIseq: mDHFR protein-fragment complementation in diploid S. cerevisiae, hORF-F[1,2] x vORF-F[3], pooled competition in SD+His+Leu + 1 ug/mL methotrexate at 30 C, triplicate, lineage fitness by double-barcode sequencing; hit: FDR < 0.05 against NULL-F[1,2] x vORF-F[3] in at least one replicate
[2] = molecular target: Leu2p (ORF of yeast LEU2) (yeast) (UniProt P04173); assay: split reporter; mDHFR protein-fragment complementation in diploid S. cerevisiae, clonal strains, all pairwise combinations of F[1,2]- and F[3]-tagged ORFs, growth on SC-URA + 100 ug/mL methotrexate agar, two days, scanned

| Binder | binding [1] | further results |
| --- | --- | --- |
| B1 |  | binding (TRIM15 (human)): binds |
| B2 | binds |  |
| B3 | binds |  |
| B4 |  | binding [2]: binds |
